The supplement of paper PMC12823440, “Inhibitors supercharge kinase turnover through native proteolytic circuits” (Nature, 2025)
The other results are listed elsewhere or left out. The calls rarely recur for the same compound in another form.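 In K562 cells expressing nanoluciferase-fused kinases, luminescence was recorded at 4 h intervals between 2 and 18 h, normalized as percent of control with DMSO at 100% and a positive control at 0%. A significant (2 sigma) signal drop marks a time point as decreased. The authors' rule for a hit is not shown and takes in more than the number of time points.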

By UniProt entry, the sequences of proteins in these tests, tags left out. Where a name states a change or a piece, a line headed by the entry shows the natural chain unless it says otherwise.
UniProt P21860, whole entry: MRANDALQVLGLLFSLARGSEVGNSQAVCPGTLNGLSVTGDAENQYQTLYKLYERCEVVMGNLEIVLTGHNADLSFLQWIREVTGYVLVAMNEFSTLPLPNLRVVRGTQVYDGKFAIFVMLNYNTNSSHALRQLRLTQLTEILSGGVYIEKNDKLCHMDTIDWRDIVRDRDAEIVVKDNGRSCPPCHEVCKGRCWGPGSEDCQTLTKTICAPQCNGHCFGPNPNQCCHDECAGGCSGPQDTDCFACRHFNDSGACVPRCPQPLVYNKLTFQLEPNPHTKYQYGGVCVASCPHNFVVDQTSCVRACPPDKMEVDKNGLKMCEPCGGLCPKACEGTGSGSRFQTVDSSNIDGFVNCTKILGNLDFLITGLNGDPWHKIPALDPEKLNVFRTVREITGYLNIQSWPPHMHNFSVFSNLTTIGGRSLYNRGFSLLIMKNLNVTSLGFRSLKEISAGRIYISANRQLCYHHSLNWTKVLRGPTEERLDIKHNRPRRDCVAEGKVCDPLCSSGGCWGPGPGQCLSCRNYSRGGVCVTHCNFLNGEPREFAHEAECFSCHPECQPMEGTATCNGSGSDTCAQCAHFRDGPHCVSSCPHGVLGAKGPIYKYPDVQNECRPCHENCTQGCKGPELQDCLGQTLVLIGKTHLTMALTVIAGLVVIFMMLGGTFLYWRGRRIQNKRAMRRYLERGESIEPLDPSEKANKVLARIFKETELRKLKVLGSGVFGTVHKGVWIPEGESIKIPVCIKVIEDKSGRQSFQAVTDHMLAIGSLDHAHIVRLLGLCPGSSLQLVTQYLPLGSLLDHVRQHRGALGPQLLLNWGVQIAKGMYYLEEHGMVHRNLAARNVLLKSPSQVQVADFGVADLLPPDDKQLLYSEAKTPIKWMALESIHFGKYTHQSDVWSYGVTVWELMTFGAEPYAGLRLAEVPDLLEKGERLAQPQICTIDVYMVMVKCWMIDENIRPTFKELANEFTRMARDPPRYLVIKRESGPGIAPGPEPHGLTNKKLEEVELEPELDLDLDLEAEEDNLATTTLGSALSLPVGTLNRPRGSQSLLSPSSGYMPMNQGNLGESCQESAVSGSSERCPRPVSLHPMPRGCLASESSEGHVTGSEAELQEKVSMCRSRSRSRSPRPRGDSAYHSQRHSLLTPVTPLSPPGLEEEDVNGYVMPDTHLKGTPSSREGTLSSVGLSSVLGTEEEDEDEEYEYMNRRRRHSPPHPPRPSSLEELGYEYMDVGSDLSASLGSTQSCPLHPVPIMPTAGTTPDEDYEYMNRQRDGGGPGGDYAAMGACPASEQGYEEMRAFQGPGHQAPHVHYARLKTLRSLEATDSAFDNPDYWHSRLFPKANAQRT
UniProt Q15303, whole entry R711C: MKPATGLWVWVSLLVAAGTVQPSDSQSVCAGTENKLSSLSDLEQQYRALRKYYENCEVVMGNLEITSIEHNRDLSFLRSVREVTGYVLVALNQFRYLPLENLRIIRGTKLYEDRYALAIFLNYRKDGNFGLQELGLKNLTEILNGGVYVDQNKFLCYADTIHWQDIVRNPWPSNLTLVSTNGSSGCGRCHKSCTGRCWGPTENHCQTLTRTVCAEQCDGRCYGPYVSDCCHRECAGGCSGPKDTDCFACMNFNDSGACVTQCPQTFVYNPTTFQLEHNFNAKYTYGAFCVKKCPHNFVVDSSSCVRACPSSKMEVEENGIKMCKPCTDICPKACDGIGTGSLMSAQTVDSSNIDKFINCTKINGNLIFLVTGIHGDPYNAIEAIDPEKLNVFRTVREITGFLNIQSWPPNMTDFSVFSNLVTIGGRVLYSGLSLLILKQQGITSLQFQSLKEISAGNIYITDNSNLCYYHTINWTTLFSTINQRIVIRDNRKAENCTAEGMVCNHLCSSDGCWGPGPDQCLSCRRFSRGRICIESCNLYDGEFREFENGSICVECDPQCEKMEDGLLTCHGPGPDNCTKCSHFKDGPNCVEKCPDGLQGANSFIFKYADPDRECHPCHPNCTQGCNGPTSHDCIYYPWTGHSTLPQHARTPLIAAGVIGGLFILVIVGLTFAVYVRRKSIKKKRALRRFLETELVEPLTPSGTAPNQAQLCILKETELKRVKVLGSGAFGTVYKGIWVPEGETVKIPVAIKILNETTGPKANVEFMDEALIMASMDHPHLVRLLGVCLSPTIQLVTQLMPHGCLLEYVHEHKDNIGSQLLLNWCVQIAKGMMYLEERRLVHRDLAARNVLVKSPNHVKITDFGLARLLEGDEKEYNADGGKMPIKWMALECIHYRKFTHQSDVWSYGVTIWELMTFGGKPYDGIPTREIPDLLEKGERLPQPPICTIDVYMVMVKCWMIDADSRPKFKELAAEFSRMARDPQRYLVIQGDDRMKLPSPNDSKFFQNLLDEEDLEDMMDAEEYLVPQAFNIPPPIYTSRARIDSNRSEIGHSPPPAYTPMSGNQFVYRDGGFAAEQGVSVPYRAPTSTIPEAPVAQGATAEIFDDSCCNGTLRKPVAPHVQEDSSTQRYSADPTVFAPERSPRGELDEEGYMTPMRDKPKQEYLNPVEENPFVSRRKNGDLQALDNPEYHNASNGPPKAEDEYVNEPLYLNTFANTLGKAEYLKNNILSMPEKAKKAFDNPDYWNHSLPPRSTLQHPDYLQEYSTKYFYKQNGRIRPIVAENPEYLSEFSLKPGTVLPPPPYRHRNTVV
UniProt O75460: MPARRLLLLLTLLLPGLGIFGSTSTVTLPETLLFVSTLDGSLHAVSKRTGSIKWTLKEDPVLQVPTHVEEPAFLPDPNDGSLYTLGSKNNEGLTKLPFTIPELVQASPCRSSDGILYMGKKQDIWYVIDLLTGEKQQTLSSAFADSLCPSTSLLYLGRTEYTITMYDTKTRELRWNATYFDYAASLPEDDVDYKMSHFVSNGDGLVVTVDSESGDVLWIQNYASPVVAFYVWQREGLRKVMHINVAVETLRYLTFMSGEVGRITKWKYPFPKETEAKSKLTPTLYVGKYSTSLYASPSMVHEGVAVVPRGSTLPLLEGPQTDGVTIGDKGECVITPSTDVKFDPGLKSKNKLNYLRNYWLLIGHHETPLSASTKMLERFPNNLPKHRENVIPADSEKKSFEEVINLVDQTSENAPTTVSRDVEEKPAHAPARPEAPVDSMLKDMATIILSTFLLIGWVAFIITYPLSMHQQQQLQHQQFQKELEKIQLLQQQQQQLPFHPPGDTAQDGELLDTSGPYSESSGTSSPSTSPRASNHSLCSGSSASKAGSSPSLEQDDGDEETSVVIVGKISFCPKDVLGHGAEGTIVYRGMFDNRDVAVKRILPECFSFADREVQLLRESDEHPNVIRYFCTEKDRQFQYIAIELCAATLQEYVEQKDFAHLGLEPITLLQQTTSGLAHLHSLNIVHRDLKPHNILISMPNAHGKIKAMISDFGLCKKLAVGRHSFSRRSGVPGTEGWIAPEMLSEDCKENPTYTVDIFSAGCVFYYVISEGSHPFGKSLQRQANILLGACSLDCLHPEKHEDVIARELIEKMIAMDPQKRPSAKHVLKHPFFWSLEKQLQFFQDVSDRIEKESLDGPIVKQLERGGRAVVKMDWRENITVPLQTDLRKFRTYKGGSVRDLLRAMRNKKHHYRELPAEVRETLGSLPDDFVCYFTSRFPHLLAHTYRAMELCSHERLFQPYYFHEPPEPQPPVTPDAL
UniProt P11362, whole entry, looked up: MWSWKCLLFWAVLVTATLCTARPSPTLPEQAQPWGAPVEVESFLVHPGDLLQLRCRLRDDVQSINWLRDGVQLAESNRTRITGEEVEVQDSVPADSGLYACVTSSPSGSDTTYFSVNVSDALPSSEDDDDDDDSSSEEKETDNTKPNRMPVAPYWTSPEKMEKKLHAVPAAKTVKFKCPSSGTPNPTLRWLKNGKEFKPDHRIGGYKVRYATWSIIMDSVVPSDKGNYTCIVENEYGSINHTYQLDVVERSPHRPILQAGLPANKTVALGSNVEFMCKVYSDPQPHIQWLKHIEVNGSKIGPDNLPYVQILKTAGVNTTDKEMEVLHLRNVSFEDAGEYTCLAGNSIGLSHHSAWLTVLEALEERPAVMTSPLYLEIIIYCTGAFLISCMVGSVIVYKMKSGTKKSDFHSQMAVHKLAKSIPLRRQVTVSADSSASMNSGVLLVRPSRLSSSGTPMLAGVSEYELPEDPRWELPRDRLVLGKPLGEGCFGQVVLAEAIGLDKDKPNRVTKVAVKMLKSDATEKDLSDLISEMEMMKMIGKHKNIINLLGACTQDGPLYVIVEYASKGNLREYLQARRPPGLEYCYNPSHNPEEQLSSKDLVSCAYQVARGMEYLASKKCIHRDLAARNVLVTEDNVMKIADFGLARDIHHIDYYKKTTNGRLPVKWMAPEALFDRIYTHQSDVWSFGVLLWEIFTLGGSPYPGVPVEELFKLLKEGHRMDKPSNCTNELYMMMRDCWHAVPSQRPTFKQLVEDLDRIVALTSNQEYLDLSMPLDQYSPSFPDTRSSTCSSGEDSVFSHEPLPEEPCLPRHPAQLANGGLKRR
UniProt P21802, whole entry, looked up: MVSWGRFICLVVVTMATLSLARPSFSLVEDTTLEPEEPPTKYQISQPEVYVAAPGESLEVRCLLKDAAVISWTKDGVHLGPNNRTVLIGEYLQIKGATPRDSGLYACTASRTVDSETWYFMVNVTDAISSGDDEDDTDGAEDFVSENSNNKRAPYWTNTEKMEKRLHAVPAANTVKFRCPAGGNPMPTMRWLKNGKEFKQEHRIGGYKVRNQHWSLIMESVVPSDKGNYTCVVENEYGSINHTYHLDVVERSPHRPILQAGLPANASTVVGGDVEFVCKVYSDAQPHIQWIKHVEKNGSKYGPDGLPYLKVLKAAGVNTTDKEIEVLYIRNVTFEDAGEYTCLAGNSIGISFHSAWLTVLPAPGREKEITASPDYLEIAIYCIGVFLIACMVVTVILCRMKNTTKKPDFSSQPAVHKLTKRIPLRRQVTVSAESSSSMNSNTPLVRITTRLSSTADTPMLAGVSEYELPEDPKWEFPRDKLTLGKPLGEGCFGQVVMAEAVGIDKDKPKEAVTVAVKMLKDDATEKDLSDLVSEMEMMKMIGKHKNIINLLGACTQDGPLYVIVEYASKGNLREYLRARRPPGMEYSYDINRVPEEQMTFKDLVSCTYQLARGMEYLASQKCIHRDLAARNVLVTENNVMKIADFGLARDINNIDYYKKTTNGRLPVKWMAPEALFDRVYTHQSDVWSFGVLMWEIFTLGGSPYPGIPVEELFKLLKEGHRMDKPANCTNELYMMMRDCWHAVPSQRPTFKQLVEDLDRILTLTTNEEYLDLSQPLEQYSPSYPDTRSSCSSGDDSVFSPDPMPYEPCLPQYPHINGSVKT
UniProt P22607, whole entry, looked up: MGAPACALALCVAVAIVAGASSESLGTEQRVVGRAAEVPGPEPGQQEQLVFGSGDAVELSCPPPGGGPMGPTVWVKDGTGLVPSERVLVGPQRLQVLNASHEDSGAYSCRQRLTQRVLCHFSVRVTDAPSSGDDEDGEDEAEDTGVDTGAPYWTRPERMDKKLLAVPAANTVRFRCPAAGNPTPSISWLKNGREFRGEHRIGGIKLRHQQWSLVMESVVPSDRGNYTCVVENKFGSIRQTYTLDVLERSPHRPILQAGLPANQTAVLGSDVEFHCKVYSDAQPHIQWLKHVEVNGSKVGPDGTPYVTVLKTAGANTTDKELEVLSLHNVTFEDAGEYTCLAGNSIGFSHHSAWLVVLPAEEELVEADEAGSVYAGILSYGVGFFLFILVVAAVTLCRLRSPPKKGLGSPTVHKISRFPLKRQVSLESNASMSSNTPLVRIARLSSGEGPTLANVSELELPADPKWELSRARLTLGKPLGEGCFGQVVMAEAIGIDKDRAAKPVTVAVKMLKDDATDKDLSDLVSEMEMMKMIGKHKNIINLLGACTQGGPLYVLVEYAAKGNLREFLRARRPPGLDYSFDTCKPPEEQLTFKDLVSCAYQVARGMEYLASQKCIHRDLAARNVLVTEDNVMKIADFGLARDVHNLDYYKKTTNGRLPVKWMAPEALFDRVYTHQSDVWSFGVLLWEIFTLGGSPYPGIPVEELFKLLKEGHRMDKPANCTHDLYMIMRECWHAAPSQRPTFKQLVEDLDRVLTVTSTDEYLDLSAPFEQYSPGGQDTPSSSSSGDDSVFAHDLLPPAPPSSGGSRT

Columns and labels:
Experiment in all cases: number of time points (of 5) at which kinase-Nluc abundance scored as decreased, DMSO-normalised (count); higher = more persistent destabilization
Settings in all cases: K562; 2-18 h
[1] = target: EGFR_L861Q (UniProt P00533)
[2] = target: EGFR_T790M (UniProt P00533)
[3] = target: EPHA2 (UniProt P29317)
[4] = target: ERBB3 (UniProt P21860)
[5] = target: ERBB4_R711C (clone: ERBB4_mut) (UniProt Q15303)
[6] = target: ERN1 (UniProt O75460)
[7] = target: FGFR1 (UniProt P11362)
[8] = target: FGFR2 (UniProt P21802)
[9] = target: FGFR3 (UniProt P22607)
[10] = target: FGR (UniProt P09769)

SMILES | number of time points [1] | number of time points [2] | number of time points [3] | number of time points [4] | number of time points [5] | number of time points [6] | number of time points [7] | number of time points [8] | number of time points [9] | number of time points [10]
CNCCOc1ccccc1C(C)(C)Nc1nccn(-c2cc(C(=O)NC3CC3)ccc2C)c1=O [p38α inhibitor 2] (10 µM) | 0 | 0 | 0 | 0 | 0 | 0 | 0 | 0 | 0 | 0
O=C1C(=Cc2ccc(O)c(O)c2)Oc2ccccc21 (2.5 µM) | 0 | 0 | 0 | 0 | 0 | 0 | 0 | 0 | 0 | 0
CC(C)(C)S(=O)(=O)c1ccc2nccc(Nc3n[nH]c4ccc(F)cc34)c2c1 (10 µM) | 0 | 0 | 0 | 0 | 0 | 0 | 0 | 0 | 0 | 0
COC(=O)[C@]1(C)CC[C@]2(C(=O)O[C@@H]3O[C@H](CO)[C@@H](O)[C@H](O)[C@H]3O)CC[C@]3(C)C(=CC[C@@H]4[C@@]5(C)C[C@H](O)[C@H](O[C@@H]6OC[C@@H](O[C@@H]7O[C@H](CO)[C@@H](O)[C@H](O)[C@H]7O)[C@H](O)[C@H]6O)[C@@](C)(CO)C5CC[C@]43C)[C@H]2C1 (stereo not given in full) [Esculentoside H] (10 µM) | 0 | 0 | 0 | 0 | 0 | 0 | 0 | 0 | 0 | 0
C=CC(=O)N[C@H]1CCOC[C@H]1Nc1ncc2cc(-c3c(Cl)c(OC)cc(OC)c3Cl)ccc2n1 [Fisogatinib] (10 µM) | 0 | 0 | 0 | 0 | 0 | 0 | 0 | 0 | 0 | 0
O=C(Nc1nccs1)C(c1cc(F)ccc1O)N1Cc2ccc(-c3ccc(N4CCNCC4)cc3)cc2C1=O (racemic) (10 µM) | 0 | 0 | 0 | 0 | 0 | 0 | 3 | 1 | 0 | 0
Clc1ccc(Nc2cccc(-c3cn[nH]c3)c2)cc1 (10 µM) | 0 | 0 | 0 | 0 | 0 | 0 | 0 | 0 | 0 | 0
CC(=O)c1cc(O)ccc1O [2,5-Dihydroxyacetophenone] (10 µM) | 0 | 0 | 0 | 0 | 0 | 0 | 0 | 0 | 0 | 0
CC(=O)Nc1nc(C)c(-c2cc3c(c(S(C)(=O)=O)c2)C(=O)N([C@@H](C)C2CC2)C3)s1 (2.5 µM) | 0 | 0 | 0 | 0 | 0 | 0 | 0 | 0 | 0 | 0
O=C(CCc1ccc2n1[B-](F)(F)[N+]1=C(c3ccc[nH]3)C=CC1=C2)ON1C(=O)CCC1=O [Py-BODIPY-NHS ester] (2.5 µM) | 0 | 0 | 0 | 0 | 0 | 0 | 0 | 0 | 0 | 0
O=C(Nc1nccs1)C(c1cc(F)ccc1O)N1Cc2ccccc2C1=O (stereo not given) (10 µM) | 0 | 0 | 0 | 0 | 0 | 0 | 0 | 0 | 0 | 0
Cn1cc(-c2cn3nccc3c(-c3cnn([C@]4(CC#N)C[C@@H](C#N)C4)c3)n2)cn1 (10 µM) | 0 | 0 | 0 | 0 | 0 | 0 | 0 | 0 | 0 | 0
O=C(NCc1cccc(O)c1)c1cc2cc(F)ccc2[nH]1 (10 µM) | 0 | 0 | 0 | 0 | 0 | 0 | 0 | 0 | 0 | 0
CCOC(=O)C1=C[C@]2(CC)CCCN3CCc4c(n1c1ccccc41)[C@@H]32 [Vinpocetine] (10 µM) | 0 | 0 | 0 | 0 | 0 | 0 | 0 | 0 | 0 | 0
O=C(O)/C=C/c1cc(Br)c(Br)c(Br)c1Br (10 µM) | 0 | 0 | 0 | 0 | 0 | 0 | 0 | 0 | 0 | 0
O=C(N/N=C/c1ccc([N+](=O)[O-])o1)c1ccc(O)cc1 [Nifuroxazide] (10 µM) | 2 | 0 | 0 | 2 | 3 | 0 | 3 | 2 | 3 | 0

Given with tabs: entries from further up
SMILES	number of time points [1]	number of time points [2]	number of time points [3]	number of time points [4]	number of time points [5]	number of time points [6]	number of time points [7]	number of time points [8]	number of time points [9]	number of time points [10]
O=C1C(=Cc2ccc(O)c(O)c2)Oc2ccccc21 (2.5 µM)	0	0	0	0	0	0	0	0	0	0
COC(=O)[C@]1(C)CC[C@]2(C(=O)O[C@@H]3O[C@H](CO)[C@@H](O)[C@H](O)[C@H]3O)CC[C@]3(C)C(=CC[C@@H]4[C@@]5(C)C[C@H](O)[C@H](O[C@@H]6OC[C@@H](O[C@@H]7O[C@H](CO)[C@@H](O)[C@H](O)[C@H]7O)[C@H](O)[C@H]6O)[C@@](C)(CO)C5CC[C@]43C)[C@H]2C1 (stereo not given in full) [Esculentoside H] (10 µM)	0	0	0	0	0	0	0	0	0	0
C=CC(=O)N[C@H]1CCOC[C@H]1Nc1ncc2cc(-c3c(Cl)c(OC)cc(OC)c3Cl)ccc2n1 [Fisogatinib] (10 µM)	0	0	0	0	0	0	0	0	0	0
O=C(Nc1nccs1)C(c1cc(F)ccc1O)N1Cc2ccc(-c3ccc(N4CCNCC4)cc3)cc2C1=O (racemic) (10 µM)	0	0	0	0	0	0	3	1	0	0
